# Assay results: the supplement of paper PMC12889115
# Some of the results follow. These are raw signals, not scaled to a control.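 First-pass screen: polymyxin B was added at a level that permeabilizes the Salmonella outer membrane while sparing the inner membrane. DMSO wells, with and without polymyxin B, defined maximum growth. Because plates differed from one another, each plate's data were ranked separately and the compounds with the lowest OD600 were carried forward as hits.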
# Test system: Salmonella enterica serovar Typhimurium SL1344
# Assay: bacterial growth OD600 after 18 h with compound and polymyxin B; higher = more bacterial growth (less inhibition)
# Details: 50 µM, Mueller-Hinton broth
SMILES,bacterial growth OD600 (polymyxin B 0.75 µg/mL),bacterial growth OD600 (polymyxin B 1 µg/mL)
CC(C)CCC(=O)N1CCC(C(=O)Nc2ccc(-c3nc4ccccc4o3)cc2)CC1,0.866,–
COc1ccc2ccccc2c1[C@@H]1C[C@H]2CN(C)C(=O)[C@]23CCCN13,–,0.95
CCOc1ccc2nc(N3CCC(NC4Cc5ccccc5C4)CC3)nc(C)c2c1,1.01,–
CC(C)Cc1nc2cc(NS(=O)(=O)N(C)C)cc(C(=O)NCCCOc3cccnc3)c2n1C,0.872,–
CCCCc1nc2cc(C(=O)N(C)CCN3CCOCC3)ccc2o1,–,0.873
COc1cc(CC2(CCC(=O)N(C)CCc3ccc(OC)c(OC)c3)CCC(=O)N2)ccc1F (stereo not given),0.832,–
COc1ccc(-c2noc(CN3CCC(Cc4ccccc4)CC3)n2)c(OC)c1OC,–,1.15
CN1CCCCC1C(=O)NCc1cccnc1Oc1ccccc1F (stereo not given),–,0.895
CN(Cc1cnn(C)c1)C(=O)c1csc2nc(-c3ccc(Cl)cc3)cn12,–,0.014
Cc1cccc(OC2CCN(Cc3nc(Cc4ccccc4F)no3)CC2)c1,–,0.691
COCCN(Cc1ccc(F)c(OC)c1)CC1CCCN(C2Cc3ccccc3C2)C1 (stereo not given),0.79,–
Cc1ncc(-c2ccc(F)cc2)c(C2CCCN(C(=O)Cc3ccc(N4CCNC4=O)cc3)C2)n1 (stereo not given),0.824,–
Cc1c(C(=O)N(Cc2cccc(OCC3CCOC3)c2)Cc2ccccn2)[nH]c2ccc(Cl)cc12 (stereo not given),0.546,–
COc1cc(OC)c(CN2CC(=O)N(c3ccccc3C)C(C)C2)c(OC)c1 (stereo not given),0.79,–
O=C1CCC(C(=O)N2CCCCO2)CN1CCc1ccc(Cl)cc1 (stereo not given),–,0.897
CCC1CN(CC(=O)N2CCC(N3CCOCC3)CC2)Cc2cc(OC)ccc2O1 (stereo not given),0.842,–
CCOc1ccccc1-c1nc(CN2CCCC2c2nonc2C)c(C)o1 (stereo not given),–,0.712
O=C(c1cccs1)N1CCC2(CCCN(Cc3ccc(F)cc3)C2=O)C1 (stereo not given),–,0.894
CCc1cc(CNC(=O)c2cc(OC)ccc2OC2CCN(C3CCCC3)CC2)on1,–,1.14
COc1ccc(CN2CCN(CCC(C)C)C(CCO)C2)c(Cl)c1OC (stereo not given),–,0.836
COc1ccccc1CCC(=O)N1CCCC(N2CCN(c3cccc(Cl)c3)CC2)C1 (stereo not given),–,0.81
Cc1nc(N(C)C2CCCCC2)ncc1C(C)NC(=O)c1cccnc1 (stereo not given),0.698,–
COCCn1cnc2cc(NC(=O)C3CCCCC3)cc(C(=O)NCc3cc(F)cc(F)c3)c21,0.559,–
CCC(C)CNC(=O)C1(N2CCN(CC)CC2)Cc2ccccc2C1 (stereo not given),0.982,–
COc1ccccc1C1CN(CCNC(=O)CCc2scnc2C)Cc2ccccc2O1 (stereo not given),0.523,–
CCC1CN(CC(=O)NC2CCN(Cc3ccccc3)CC2)Cc2cc(OC)ccc2O1 (stereo not given),0.823,–
Cc1nc2sccn2c1CN1CCCC(C(=O)c2cccc(OC(C)C)c2)C1 (stereo not given),–,0.741
COc1ccc(NC(=O)CCC2CCCN(Cc3cccc(C)n3)C2)cc1Cl (stereo not given),–,0.855
O=C(NCc1cccnc1N1CCCC(O)C1)c1ccc(Cl)c(F)c1 (stereo not given),0.786,–
COc1ccc(CCN2CC(NC(=O)C3CCC3)CC2=O)cc1 (stereo not given),–,0.881

# Pulled by structure from above:
SMILES,bacterial growth OD600 (polymyxin B 0.75 µg/mL),bacterial growth OD600 (polymyxin B 1 µg/mL)
CCCCc1nc2cc(C(=O)N(C)CCN3CCOCC3)ccc2o1,–,0.873
O=C(NCc1cccnc1N1CCCC(O)C1)c1ccc(Cl)c(F)c1 (stereo not given),0.786,–
